In patent publication US20160015771A1, “METHOD OF TREATING OPTIC NERVE DAMAGE, OPHTHALMIC ISCHEMIA OR OPHTHALMIC REPERFUSION INJURY” (Curonz Holdings Company Limited, priority 2012, published 2016):
Part of at least one peptide drawing is inferred or uncertain, most often the ends. Non-standard residues stand in square brackets, D forms with d. Residues, ends and D or L forms follow the SMILES beside them. Aib = CC(C)(N)C(=O)O

Test system: Retinal Ganglion Cells (RGC)
Assay: Retinal ganglion cell (RGC) survival by BRN3A staining of flat-mounted retinae after optic nerve ligation/reperfusion
Type: in vivo, Male Long-Evans rats
Settings: 8 days after injury
Procedure: Ischemia was maintained for 45 minutes.
At the end of the study, the animals were euthanized by intraperitoneal injection of overdosed pentobarbital. After euthanasia at day 8 after optic nerve ligation injury, the retinae of both eyes of N=6 animals per cohort were fixed in formalin 4% (1 h at room temperature), dissected and flat-mounted. The flat-mounted preparation was incubated with an Alexa 594 conjugated anti-BRN3A (Brain-specific homeobox/POU domain protein 3A, Chemicon, cat #mAb1585) to visualize the Retinal Ganglion Cells (RGC). Fluorescence was assessed by an Apotome microscope at magnification×20 (Zeiss) within twelve randomly selected respective microscopic fields per subject. The number of surviving RGC was determined with Axio Vision 4.2 software in the respective retinae areas.
Animals were sacrificed at day 8 and retinae were analysed for BrN3A (Brain-specific homeobox/POU domain protein 3A) protein expression patterns that are specific for retinal ganglion cells (RGCs). 12 fields per retina were evaluated.

C[C@H](NC(=O)[C@H](CCCNC(=N)N)NC(=O)[C@H](CCCNC(=N)N)NC(=O)CN)C(=O)N[C@@H](C)C(=O)N1CCC[C@H]1C(=O)NCC(=O)N[C@@H](CCCNC(=N)N)C(=O)NC(C)(C)C(=O)NCC(=O)NCC(=O)O [NRP2945, GlyArgArgAlaAlaProGlyArgAibGlyGly] (H-GRRAAPGR[Aib]GG-OH)
total RGCs rescued (relative to non-ischemic eyes, saline group 19.6%): 29.2%
RGC density (NRP2945 eye drop 16 times (twice daily) starting 30 min after reperfusion, n=6, non-ischemic eyes 2158 RGCs/mm2): 629.8±30.3 cells/mm2
